Measured data: PubChem BioAssay AID1259254 (NCATS, 2017)
Purpose: 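Finding genes that stop cells copying their DNA twice in one cycle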 (primary screen). Cell system: human HCT116 colorectal cancer cells. Reagent: single siRNA against human genes. Time to read-out: 3 days. Detection: 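Imaged Hoechst DNA stain sorts each cell into a cycle phase by DNA amount; per plate, G2 fraction set to 0% for non-targeting and 100% for GMNN siRNA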. Reading the numbers: G2 robust z-score: higher = more G2 cells, more excess DNA replication. Rule for the call: 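An siRNA counts as active if its G2 robust z-score lies at least 5 MADs above the screen median; here such calls match roughly 38% of GMNN control or more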.
Shown is a random part of about 59,000 reagents tested. About 1,550 of all reagents (2.6%) count as active. 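G2 share is only a proxy for re-replication; each gene was hit by three separate siRNAs, and active genes were retested.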 Entries without a mark were called inactive. The numbers tell different reagents against one gene apart. Not all columns of the deposit are shown. Not stated in the record: the amount of reagent.

G2 robust z-score, by gene and reagent
MEX3A (mex-3 RNA binding family member A): #1 -0.087; #2 2.91; #3 0.672
TBL1XR1 (TBL1X/Y related 1): #1 0.584; #2 -0.262; #3 0.992
ANXA2R (annexin A2 receptor): #1 -0.909; #2 -0.68; #3 -0.861
DNALI1 (dynein axonemal light intermediate chain 1): #1 -0.172; #2 -0.0165; #3 -1.02
IGSF8 (immunoglobulin superfamily member 8): #1 0.0637; #2 4.34; #3 0.606
MAP3K6 (mitogen-activated protein kinase kinase kinase 6): #1 -0.00463; #2 -1.06; #3 -1.08
GBP2 (guanylate binding protein 2): #1 0.489; #2 0.666; #3 1.62
SNX8 (sorting nexin 8): #1 1.04; #2 -1.4; #3 6.27 (active)
C8orf74 (chromosome 8 open reading frame 74): #1 0.0103; #2 -0.354; #3 0.0848
CCL5 (C-C motif chemokine ligand 5): #1 -1.04; #2 -0.562; #3 -1.49
NTF4 (neurotrophin 4): #1 -0.84; #2 -0.218; #3 -0.715
FABP5P9 (fatty acid binding protein 5 pseudogene 9): #1 -0.367; #2 -1.04; #3 0.136
PDE4DIPP6 (PDE4DIP pseudogene 6): #1 1.2; #2 2.75; #3 1.94
CCDC170 (coiled-coil domain containing 170): #1 -0.7; #2 2.39; #3 -0.154
AADACL3 (arylacetamide deacetylase like 3): #1 0.85; #2 3.1; #3 -0.53
KIAA0825: #1 1.02; #2 -1.05; #3 0.832
DEDD (death effector domain containing): #1 0.0518; #2 -0.23; #3 2.15
SLC26A8: #1 -1.01; #2 -0.338; #3 -0.652
CASTOR1 (cytosolic arginine sensor for mTORC1 subunit 1): #1 -0.56; #2 1.93; #3 1.77
PLXNA1 (plexin A1): #1 0.151; #2 -1.16; #3 -0.861
RARB (retinoic acid receptor beta): #1 -0.14; #2 -0.141; #3 -0.205
C1orf122 (chromosome 1 open reading frame 122): #1 -0.336; #2 1.01; #3 -0.592
GINS3 (GINS complex subunit 3): #1 -1.35; #2 1.16; #3 -0.845
